PubChem BioAssay AID720505 – Drosophila RNAi Screening Center, 2013
The screen tested about 20,000 reagents; below is an unselected part of those with a known target gene and a result. Over the whole deposit, about 2,100 (10%) are marked active. 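Raw plate signals without normalisation; calls rest on control-based scores that were not deposited; replicate 2 separates called from uncalled poorly.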 The numbers tell different reagents against one gene apart. A plus sign joins genes that one reagent is predicted to hit. No sequences are given here. Not stated in the record: the amount of reagent, the time to read-out.

- Purpose: 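Knock-downs that reduce calcium influx once internal stores are emptied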 (primary screen)
- Cells: Drosophila S2R+ cells
- Reagents: long dsRNA against Drosophila genes
- Challenge: thapsigargin (2 µM) in calcium-free buffer to empty internal stores, then 2 mM calcium added back
- Read-out: 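Stores emptied by 2 µM thapsigargin without calcium, then 2 mM calcium re-added; fluo-4 fluorescence followed by FLIPR in 384-well plates, per-well averaged endpoint, raw; two screen passes, some wells retested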
- Reading the numbers: calcium signal and retest calcium signal: higher = more calcium entry after store depletion
- Hit rule: 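About 1500 genes called as lowering calcium entry, by varying amounts, judged against per-plate control wells with STIM1 as positive and Rho1 as negative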
- Calls: active = called as lowering calcium entry; inactive = not called

no.	Target gene	reagent	calcium signal, replicate 1	calcium signal, replicate 2	retest calcium signal, replicate 1	retest calcium signal, replicate 2	Call
1	CG14205 (GeneID 32952)	1	156	81.1			inactive
2	CG3603 (GeneID 31289)	1	91.3	123			inactive
3	cd (GeneID 42681)	1	91.5	154			inactive
4	RPA1 (GeneID 40972)	1	72.6	64.9			active
5	Golgin97 (GeneID 36492)	1	153	115			inactive
6	Rrp1 (GeneID 33500)	1	61.5	62.8	78.6	82.2	active
7	mre11 (GeneID 34565)	1	89	118	83	95.7	inactive
8	mre11 (GeneID 34565)	2	119	222			inactive
9	Diap1 (GeneID 39753)	1	25.4	33.3			active
10	Magi (GeneID 37403)	1	197	130			inactive
11	Magi (GeneID 37403)	2	57.8	217			inactive
12	Zpr1 (GeneID 31851)	1	109	109			inactive
13	CG8492 (GeneID 38866)	1	94.4	80	107	152	inactive
14	CG8492 (GeneID 38866)	2	177	90.5			inactive
15	TkR86C (GeneID 41286)	1	130	95.3			inactive
16	Lst (GeneID 36853)	1	127	107			inactive
17	dpr9 (GeneID 2768670)	1	150	144			inactive
18	dpr9 (GeneID 2768670)	2	138	117			inactive
19	dpr9 (GeneID 2768670)	3	139	132			inactive
20	luna (GeneID 2768719)	1	111	177			inactive
21	luna (GeneID 2768719)	2	111	180			inactive
22	luna (GeneID 2768719)	3	102	180	6582	148	inactive
23	Rilpl (GeneID 31090)	1	83	85			inactive
24	CG10505 (GeneID 37428)	1	127	118			inactive
25	CG34224 (GeneID 5740585)	1	111	127			inactive
26	CG10508 (GeneID 40342)	1	59.2	75.2			active
27	CG10508 (GeneID 40342)	2	117	114			inactive
28	CG7794 (GeneID 42159)	1	154	119			inactive
29	Rpn1 (GeneID 40174)	1	55.8	84.8			active
30	Argp (GeneID 261628)	1	150	196			inactive
31	CG12898 (GeneID 36096)	1	125	137			inactive
32	CG34029 (GeneID 3885592)	1	84.3	6362			inactive
33	CG10802 (GeneID 31318)	1	79.7	120			inactive
34	CG9459 (GeneID 41213)	1	126	84.1			inactive
35	Pkc98E (GeneID 43428)	1	71	80.4			inactive
36	fest (GeneID 37220)	1	110	107			inactive
37	CG15362 (GeneID 33371)	1	101	127			inactive
38	CG3257 (GeneID 37862)	1	134	90.3			inactive
39	Dyrk3 (GeneID 3885567)	1	79.1	131			inactive
40	path (GeneID 39106)	1	86.6	47.3			active
41	Phlpp (GeneID 35178)	1	133	103			inactive
42	Phlpp (GeneID 35178)	2	104	121			inactive
43	Or7a (GeneID 31750)	1	173	124			inactive
44	CG12341 (GeneID 36137)	1	119	129			inactive
45	CG1927 (GeneID 38262)	1	139	99.9			inactive
46	CG14431 (GeneID 31639)	1	83.9	220			active
47	CG14431 (GeneID 31639)	2	186	135			inactive
48	Proc (GeneID 250710)	1	104	151			inactive
49	Proc (GeneID 250710)	2	100	126			inactive
50	REG (GeneID 32274)	1	161	84.7			inactive
51	Oatp58Da (GeneID 37543)	1	201	80.9			inactive
52	sxc (GeneID 35486)	1	143	185			inactive
53	CG42449 (GeneID 31486)	1	133	78.8	5124	134	inactive
54	Nelf-E (GeneID 38982)	1	83.9	75.3			inactive
55	Galk (GeneID 39031)	1	168	117			inactive
56	Csgalnact (GeneID 36079)	1	145	106			inactive
57	MED26 (GeneID 43816)	1					active
58	MED26 (GeneID 43816)	2	93.9	139			inactive
59	MED26 (GeneID 43816)	3	118	82.9			inactive
60	Elp3 (GeneID 33649)	1	95.8	126			inactive
61	CG43737 (GeneID 32448)	1	111	148			inactive
62	CG43737 (GeneID 32448)	2	102	161			inactive
63	CG17124 (GeneID 34485)	1	114	165			inactive
64	CG17217 (GeneID 34644)	1	93.1	108			inactive
65	CG13284 (GeneID 35021)	1	93.9	126			inactive
66	ppan (GeneID 42502)	1	125	178			inactive
67	Gr68a (GeneID 39324)	1	52.1	83.2			inactive
68	CG15553 (GeneID 43677)	1	175	118			inactive
69	Tbcd (GeneID 33389)	1	82.3	143			inactive
70	Jhbp2 (GeneID 40612)	1	110	119			inactive
71	CG3862 (GeneID 33261)	1	142	161			inactive
72	lab (GeneID 40817)	1	167	212			inactive
73	MFS18 (GeneID 33650)	1	135	206			inactive
74	Npc2a (GeneID 33374)	1	104	121			inactive
75	CG13000 (GeneID 32685)	1	94.9	130			inactive
76	CG43901 (GeneID 32024)	1	50.5	99.6			active
77	CG43901 (GeneID 32024)	2	70	107			active
78	CG43901 (GeneID 32024)	3	65.3	122	5823	83	active
79	CG43901 (GeneID 32024)	4	75.9	95.2			inactive
80	rdhB (GeneID 42614)	1	172	141			inactive
81	olf186-M (GeneID 37039)	1	109	111			inactive
82	Mpcp2 (GeneID 39587)	1	91.3	111			inactive
83	cad (GeneID 35341)	1	51.3	85.5			active
84	cad (GeneID 35341)	2	112	150			inactive
85	UbcE2H (GeneID 31728)	1	82.6	74.1			inactive
86	CG33475 (GeneID 2768724)	1	137	187			inactive
87	CG17698 (GeneID 4379919)	1	96.9	125			inactive
88	Cnep1r2 (GeneID 39204)	1	80.2	92.7			inactive
89	CG4017 (GeneID 34296)	1	179	129			inactive
90	Srg1 (GeneID 42969)	1	106	132			inactive
91	MESR3 (GeneID 35116)	1	68.1	95			inactive
92	snoRNA:Me28S-C3227a + snoRNA:Me18S-A1061 + snoRNA:Me28S-C3227b + 7 more	1	132	101	7806	108	inactive
93	Xe7 (GeneID 40699)	1	79.7	167			inactive
94	CG8630 (GeneID 41629)	1	119	169			inactive
95	TrpRS-m (GeneID 39989)	1	103	102			inactive
96	RhoGAP71E (GeneID 39693)	1	136	95.4			inactive
97	RhoGAP71E (GeneID 39693)	2	67	113			inactive
98	RhoGAP71E (GeneID 39693)	3	62.6	144			inactive
99	CkIIbeta (GeneID 32132)	1	95.5	79.7			inactive
100	Obp51a (GeneID 246666)	1	92.7	178			inactive
101	CG5003 (GeneID 43344)	1	110	91.8			inactive
102	Mlc2 (GeneID 43587)	1	109	189			inactive
103	CG32486 (GeneID 38367)	1	68.2	94.7			active
104	CG32486 (GeneID 38367)	2	95.7	92.8			inactive
105	CG14676 (GeneID 40729)	1	141	218			inactive
106	Arc2 (GeneID 36597)	1	64.8	134			active
